Test results as given in article PMC12210252.
A negative result means that nothing was seen under these conditions. At least one verdict rests on a figure or table, not on a statement of the authors. For part of these data: Construct, isoform or probe ends are uncertain for at least one entry.

Chains of the proteins cited; added tags and fusions are not shown. Chains listed by the source or under a name are the forms on record and can include a tag or linker. Residues count along the entry.
UniProt P02769, 25-607: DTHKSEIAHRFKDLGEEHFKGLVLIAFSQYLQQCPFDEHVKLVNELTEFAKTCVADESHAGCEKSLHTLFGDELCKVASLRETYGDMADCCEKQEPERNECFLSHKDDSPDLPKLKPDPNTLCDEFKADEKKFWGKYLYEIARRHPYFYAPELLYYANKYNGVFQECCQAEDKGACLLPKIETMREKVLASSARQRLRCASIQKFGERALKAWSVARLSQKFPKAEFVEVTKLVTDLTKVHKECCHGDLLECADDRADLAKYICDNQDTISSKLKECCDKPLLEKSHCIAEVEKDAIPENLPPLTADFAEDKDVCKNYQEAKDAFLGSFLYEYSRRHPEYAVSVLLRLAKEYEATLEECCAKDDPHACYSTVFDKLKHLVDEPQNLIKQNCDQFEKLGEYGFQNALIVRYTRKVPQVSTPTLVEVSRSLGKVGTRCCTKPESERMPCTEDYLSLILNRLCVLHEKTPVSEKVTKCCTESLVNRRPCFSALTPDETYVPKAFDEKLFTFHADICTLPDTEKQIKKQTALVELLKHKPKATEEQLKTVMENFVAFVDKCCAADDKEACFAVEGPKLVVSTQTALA
thyroid-stimulating hormone (hTSH) (human), one chain, as listed by the source, chain 2 of 2: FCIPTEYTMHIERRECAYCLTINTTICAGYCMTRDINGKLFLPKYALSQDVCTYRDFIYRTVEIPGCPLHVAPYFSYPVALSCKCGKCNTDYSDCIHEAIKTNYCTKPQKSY
thyroid-stimulating hormone (hTSH) (human), one chain, as listed by the source, chain 1 of 2: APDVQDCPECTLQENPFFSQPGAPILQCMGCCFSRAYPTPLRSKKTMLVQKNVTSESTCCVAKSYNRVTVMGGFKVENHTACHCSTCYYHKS

Key:
Assay in all cases: SnS2-FET aptasensor
Settings in all cases: 10 nM protein, response to 1 pM T4 at least several fold higher; 5'-thiol, immobilized on MPTMS surface through a disulfide bond; 1x PBS, pH 7.4; aptamer immobilized on PEG:MPTMS/SnS2-FET (AptT4:PEG:PTMS 1:2:3); temperature not stated; commercial protein; single-stranded DNA
[1] = molecular target: bovine serum albumin (BSA) (bovine) (UniProt P02769)
hemoglobin (Hb) = test system: hemoglobin (Hb)
[2] = test system: thyroid-stimulating hormone (hTSH) (human)

Measured: binding result

CGCCGTTGGTGTTCGGTCAGGCTTCCGTGGCAACGGGGCAAAATGGTAATCGCGGGGAACC [AptT4 (SH-5'-AptT4), 61-mer T4 aptamer]
no binding: all assays above
